Laboratory results as given in the supplement of paper PMC10849652.
The other results are listed elsewhere or left out. Residues, ends and D or L forms follow the SMILES beside them. *: point of attachment. Cbz = O=C(OCc1ccccc1)*

By UniProt entry, the sequences of proteins in these tests, tags left out. Where a name states a change or a piece, a line headed by the entry shows the natural chain unless it says otherwise.
UniProt Q6DD88: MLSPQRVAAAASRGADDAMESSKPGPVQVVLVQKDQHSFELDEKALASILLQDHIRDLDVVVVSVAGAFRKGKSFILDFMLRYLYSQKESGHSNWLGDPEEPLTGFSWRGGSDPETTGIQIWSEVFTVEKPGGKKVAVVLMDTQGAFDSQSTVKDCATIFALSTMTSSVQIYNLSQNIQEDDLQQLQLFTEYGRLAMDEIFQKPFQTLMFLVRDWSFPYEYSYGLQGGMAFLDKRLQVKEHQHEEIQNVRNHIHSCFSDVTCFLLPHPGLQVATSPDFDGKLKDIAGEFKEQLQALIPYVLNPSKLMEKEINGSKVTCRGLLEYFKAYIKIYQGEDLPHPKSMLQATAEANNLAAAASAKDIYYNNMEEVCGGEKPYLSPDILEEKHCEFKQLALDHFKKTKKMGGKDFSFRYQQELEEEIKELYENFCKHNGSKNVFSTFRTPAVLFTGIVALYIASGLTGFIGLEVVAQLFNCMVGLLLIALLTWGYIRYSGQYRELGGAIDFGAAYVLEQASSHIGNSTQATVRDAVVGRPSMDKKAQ
UniProt Q9BPX5, whole entry, looked up: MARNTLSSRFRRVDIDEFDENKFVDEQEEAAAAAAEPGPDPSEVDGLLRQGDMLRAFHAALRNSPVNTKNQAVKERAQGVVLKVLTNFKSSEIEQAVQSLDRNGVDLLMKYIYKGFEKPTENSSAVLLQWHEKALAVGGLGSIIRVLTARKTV
UniProt Q7L266: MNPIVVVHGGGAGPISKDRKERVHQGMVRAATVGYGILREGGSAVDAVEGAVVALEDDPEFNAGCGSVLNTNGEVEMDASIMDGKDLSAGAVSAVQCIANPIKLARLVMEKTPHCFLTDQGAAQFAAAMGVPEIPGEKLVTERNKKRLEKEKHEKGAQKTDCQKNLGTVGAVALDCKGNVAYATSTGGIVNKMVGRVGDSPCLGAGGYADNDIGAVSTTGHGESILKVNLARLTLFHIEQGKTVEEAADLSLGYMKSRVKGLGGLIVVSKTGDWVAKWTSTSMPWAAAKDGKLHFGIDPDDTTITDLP
UniProt Q9NT62, whole entry, looked up: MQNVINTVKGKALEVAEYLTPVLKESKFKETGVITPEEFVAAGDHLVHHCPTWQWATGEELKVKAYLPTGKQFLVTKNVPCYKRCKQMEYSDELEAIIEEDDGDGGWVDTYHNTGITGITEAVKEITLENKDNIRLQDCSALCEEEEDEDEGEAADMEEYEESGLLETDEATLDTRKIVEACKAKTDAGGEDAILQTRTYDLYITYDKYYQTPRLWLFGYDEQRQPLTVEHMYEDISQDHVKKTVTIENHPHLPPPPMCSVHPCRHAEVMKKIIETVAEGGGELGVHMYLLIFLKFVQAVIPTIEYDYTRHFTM
UniProt P48047: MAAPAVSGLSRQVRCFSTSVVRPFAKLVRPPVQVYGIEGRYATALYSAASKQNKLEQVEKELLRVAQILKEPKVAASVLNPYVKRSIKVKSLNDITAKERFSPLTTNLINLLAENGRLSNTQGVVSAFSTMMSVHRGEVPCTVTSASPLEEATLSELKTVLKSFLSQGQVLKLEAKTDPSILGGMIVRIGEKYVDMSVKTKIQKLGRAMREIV
UniProt Q12797: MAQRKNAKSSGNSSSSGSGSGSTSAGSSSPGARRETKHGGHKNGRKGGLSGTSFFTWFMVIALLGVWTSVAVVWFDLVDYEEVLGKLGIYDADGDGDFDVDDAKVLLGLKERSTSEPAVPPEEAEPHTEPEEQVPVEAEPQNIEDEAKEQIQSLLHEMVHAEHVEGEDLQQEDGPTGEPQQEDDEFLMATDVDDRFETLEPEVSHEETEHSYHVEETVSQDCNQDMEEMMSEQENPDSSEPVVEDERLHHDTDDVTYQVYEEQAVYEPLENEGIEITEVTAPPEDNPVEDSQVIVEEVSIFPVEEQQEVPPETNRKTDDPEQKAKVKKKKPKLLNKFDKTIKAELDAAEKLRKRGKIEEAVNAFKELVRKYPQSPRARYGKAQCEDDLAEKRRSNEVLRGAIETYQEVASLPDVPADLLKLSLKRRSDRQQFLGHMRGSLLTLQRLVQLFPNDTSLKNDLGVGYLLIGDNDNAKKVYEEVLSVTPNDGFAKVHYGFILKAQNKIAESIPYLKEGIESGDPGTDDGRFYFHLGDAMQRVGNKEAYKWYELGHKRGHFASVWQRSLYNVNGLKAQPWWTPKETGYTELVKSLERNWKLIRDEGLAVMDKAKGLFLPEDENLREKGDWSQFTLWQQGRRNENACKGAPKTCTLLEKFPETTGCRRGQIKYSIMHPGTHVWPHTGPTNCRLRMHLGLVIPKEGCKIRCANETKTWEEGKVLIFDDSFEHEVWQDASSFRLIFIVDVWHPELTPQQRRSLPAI
UniProt P15289: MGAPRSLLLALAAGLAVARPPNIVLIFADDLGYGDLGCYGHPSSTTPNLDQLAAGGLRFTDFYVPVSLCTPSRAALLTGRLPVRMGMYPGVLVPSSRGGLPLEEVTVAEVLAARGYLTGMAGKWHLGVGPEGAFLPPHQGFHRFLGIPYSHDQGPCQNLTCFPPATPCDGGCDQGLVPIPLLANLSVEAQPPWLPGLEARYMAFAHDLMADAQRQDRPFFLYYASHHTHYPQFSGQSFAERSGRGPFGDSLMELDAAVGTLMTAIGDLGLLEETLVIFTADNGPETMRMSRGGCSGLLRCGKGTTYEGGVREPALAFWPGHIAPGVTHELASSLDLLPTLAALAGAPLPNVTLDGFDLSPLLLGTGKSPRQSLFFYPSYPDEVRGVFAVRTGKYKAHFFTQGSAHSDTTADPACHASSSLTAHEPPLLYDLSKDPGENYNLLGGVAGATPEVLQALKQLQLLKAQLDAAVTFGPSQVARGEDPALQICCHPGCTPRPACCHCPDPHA
UniProt P06576, whole entry, looked up: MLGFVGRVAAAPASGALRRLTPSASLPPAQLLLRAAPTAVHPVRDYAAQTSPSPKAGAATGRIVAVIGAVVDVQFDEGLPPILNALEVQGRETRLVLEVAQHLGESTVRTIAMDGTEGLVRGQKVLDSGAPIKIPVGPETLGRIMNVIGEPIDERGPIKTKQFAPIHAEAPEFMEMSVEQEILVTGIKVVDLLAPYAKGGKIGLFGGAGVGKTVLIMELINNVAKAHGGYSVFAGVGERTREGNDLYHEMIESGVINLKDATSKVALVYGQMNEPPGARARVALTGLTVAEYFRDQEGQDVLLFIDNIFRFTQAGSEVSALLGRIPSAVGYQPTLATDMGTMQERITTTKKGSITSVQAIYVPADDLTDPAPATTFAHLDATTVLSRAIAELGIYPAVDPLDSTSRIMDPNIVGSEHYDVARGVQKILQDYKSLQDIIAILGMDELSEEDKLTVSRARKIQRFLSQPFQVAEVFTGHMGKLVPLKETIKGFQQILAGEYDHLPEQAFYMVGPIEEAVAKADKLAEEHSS
UniProt P36404: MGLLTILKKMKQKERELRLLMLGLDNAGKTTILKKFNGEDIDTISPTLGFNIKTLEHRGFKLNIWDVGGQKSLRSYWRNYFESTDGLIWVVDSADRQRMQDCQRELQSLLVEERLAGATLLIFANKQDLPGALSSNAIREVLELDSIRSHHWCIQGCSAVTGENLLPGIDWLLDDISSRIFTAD
UniProt P21281, whole entry, looked up: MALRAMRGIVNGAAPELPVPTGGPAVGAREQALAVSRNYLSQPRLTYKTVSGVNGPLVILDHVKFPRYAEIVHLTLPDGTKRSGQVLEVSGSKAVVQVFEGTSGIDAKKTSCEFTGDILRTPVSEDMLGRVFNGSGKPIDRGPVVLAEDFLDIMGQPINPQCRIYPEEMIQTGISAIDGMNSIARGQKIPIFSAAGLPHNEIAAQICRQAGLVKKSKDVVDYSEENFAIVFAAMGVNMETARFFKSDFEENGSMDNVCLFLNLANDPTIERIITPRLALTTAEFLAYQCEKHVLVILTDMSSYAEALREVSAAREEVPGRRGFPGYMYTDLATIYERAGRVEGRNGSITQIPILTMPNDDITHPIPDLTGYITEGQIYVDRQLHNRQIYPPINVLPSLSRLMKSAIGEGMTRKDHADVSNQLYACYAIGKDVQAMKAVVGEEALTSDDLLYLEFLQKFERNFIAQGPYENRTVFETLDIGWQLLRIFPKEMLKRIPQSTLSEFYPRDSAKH
UniProt O75348, whole entry, looked up: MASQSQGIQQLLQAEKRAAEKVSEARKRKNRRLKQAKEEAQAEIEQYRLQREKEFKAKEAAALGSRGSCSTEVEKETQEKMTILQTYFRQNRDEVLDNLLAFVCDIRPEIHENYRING
UniProt Q8N3C0, whole entry, looked up: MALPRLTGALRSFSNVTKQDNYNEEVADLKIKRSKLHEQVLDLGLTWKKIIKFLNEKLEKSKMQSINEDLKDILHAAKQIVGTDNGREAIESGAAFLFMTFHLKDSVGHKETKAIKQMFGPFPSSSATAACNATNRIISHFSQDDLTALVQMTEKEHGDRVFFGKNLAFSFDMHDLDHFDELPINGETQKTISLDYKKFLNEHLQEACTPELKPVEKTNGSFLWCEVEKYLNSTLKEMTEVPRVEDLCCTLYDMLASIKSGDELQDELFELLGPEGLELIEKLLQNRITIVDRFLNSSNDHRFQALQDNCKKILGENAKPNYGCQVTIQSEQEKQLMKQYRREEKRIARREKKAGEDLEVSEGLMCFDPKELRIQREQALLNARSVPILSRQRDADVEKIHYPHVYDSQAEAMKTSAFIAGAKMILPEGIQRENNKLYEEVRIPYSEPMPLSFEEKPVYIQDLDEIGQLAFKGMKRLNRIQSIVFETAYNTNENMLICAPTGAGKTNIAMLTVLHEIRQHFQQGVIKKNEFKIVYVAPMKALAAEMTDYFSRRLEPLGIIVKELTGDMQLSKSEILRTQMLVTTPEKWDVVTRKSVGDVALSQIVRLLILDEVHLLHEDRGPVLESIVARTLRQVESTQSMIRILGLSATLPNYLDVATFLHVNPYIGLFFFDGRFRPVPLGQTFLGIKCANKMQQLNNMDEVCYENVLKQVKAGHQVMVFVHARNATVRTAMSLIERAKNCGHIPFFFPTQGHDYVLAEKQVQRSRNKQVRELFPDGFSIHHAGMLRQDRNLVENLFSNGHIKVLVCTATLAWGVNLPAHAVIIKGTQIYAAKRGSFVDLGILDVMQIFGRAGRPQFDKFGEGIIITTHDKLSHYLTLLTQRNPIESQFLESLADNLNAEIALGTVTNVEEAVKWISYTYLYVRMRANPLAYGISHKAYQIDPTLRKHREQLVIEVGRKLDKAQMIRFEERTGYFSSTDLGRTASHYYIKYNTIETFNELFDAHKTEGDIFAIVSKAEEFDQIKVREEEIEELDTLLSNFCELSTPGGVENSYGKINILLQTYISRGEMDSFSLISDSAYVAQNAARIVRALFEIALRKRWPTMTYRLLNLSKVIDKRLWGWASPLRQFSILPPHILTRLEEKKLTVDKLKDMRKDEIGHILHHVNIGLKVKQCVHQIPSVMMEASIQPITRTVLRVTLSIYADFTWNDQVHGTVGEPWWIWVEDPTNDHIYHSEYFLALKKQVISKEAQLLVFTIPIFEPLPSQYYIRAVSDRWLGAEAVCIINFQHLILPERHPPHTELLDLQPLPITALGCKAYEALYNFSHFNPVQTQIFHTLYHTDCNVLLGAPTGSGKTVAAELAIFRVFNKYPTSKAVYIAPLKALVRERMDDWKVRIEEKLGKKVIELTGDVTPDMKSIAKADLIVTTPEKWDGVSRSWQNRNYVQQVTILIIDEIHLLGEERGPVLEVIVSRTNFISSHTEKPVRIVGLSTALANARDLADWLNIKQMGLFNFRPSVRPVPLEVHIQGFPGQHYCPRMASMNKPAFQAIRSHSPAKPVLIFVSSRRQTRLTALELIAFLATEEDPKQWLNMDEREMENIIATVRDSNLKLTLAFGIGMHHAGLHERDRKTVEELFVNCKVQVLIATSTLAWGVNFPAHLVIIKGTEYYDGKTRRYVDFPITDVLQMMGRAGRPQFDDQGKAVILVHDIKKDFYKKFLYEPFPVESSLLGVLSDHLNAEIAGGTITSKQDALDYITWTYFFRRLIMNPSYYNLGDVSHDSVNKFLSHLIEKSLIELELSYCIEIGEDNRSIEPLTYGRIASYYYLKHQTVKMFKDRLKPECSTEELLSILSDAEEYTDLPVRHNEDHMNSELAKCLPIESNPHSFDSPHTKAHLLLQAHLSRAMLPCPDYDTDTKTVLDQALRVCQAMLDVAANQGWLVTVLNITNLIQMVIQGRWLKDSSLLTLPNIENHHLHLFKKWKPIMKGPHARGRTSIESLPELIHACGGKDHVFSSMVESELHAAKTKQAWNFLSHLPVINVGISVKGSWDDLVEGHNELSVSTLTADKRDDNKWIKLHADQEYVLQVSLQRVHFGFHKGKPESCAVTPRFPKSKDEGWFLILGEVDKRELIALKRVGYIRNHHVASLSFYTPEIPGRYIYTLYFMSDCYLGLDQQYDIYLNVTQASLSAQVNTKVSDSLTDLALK
UniProt Q9NVP2, whole entry, looked up: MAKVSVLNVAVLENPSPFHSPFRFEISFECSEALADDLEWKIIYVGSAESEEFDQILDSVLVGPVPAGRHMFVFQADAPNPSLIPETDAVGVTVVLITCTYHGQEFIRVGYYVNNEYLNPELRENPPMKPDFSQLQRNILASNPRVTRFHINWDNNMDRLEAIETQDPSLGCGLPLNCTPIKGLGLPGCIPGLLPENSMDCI

What was measured:
Experiment in all cases: log2 fold change, soluble protein after heating vs DMSO (PISA); higher = thermal stabilisation; K562 cells, 10 uM, 30 min; active = over 0.2 and 3.5 SD of the protein, either way, in both replicates (recomputed)
erlotinib = compound: C#Cc1cccc(Nc2ncnc3cc(OCCOC)c(OCCOC)cc23)c1 [erlotinib]
Method in brief: (§1)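 K562 cells at 2×10^6 cells/mL were exposed to 10 μM compound for 30 min, then aliquots were heated for 3 min across 48°C-58°C, pooled, and extracted in PBS containing 0.5% NP-40 at 4°C. The supernatant after 21,000xg for 90 min was taken as soluble protein and measured by TMTpro 16plex LC-MS/MS with channel sums equalised. Thermal stability is reported relative to control samples, with values from duplicates. Fold changes are given on a log2 scale.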

[1] = compound: C/C(=N\NC(=O)C1=CC(=CC=C1)S(=O)(=O)N2CCOCC2)/C3=C(C=CC(=C3)Cl)O
Method in brief: as §1

[2] = compound: C1=CC(=C(C=C1Cl)C2=NC3=NC=CN=C3C(=N2)NC4=CC=NC=C4)F
Method in brief: as §1

[3] = compound: C1=CC(=CC=C1C2=NC3=C(N2)C=C(C=C3)C(=O)N)OC4=CC=C(C=C4)Cl
Method in brief: as §1

[4] = compound: C1=CC2=C(C=CC(=C2)/C=C\3/C(=O)NC(=NCC4=CC=CS4)S3)N=C1
Method in brief: as §1

[5] = compound: C1=CC2=NC=CN=C2C=C1/C=C/3\C(=O)NC(=O)S3
Method in brief: as §1

[6] = compound: C1=CC=C(C=C1)C2=NC(=C(N2)C3=CC=NC=C3)C4=CC(=C(C=C4)Cl)O
Method in brief: as §1

[7] = compound: C1=CC=C2C(=C1)C3=NNC4=CC=CC(=C43)C2=O
Method in brief: as §1

[8] = compound: C1CCN(C1)C(=O)NC2=CC=CC(=C2)NC3=NC=C(C(=N3)NCCC4=CN=CN4)Br
Method in brief: as §1

[9] = compound: C1CN(CCC1(CC2=CC=C(C=C2)Cl)N)C3=NC=NC4=C3C=CN4
Method in brief: as §1

IRAK-1-4 Inhibitor I = compound: C1COCCN1CCN2C3=CC=CC=C3N=C2NC(=O)C4=CC(=CC=C4)[N+](=O)[O-] [IRAK-1-4 Inhibitor I]
Method in brief: as §1

ibrutinib = compound: C=CC(=O)N1CCC[C@@H](n2nc(-c3ccc(Oc4ccccc4)cc3)c3c(N)ncnc32)C1 [ibrutinib]
Method in brief: as §1

[10] = compound: CC(=O)c1cnc2ccc(-c3cc(Cl)c(O)c(Cl)c3)nc2c1N[C@H]1CC[C@H](CN(C)C)CC1
Method in brief: as §1

ralimetinib = compound: CC(C)(C)Cn1c(N)nc2ccc(-c3[nH]c(C(C)(C)C)nc3-c3ccc(F)cc3)nc21 [ralimetinib]
Method in brief: as §1

[11] = compound: CC(C)(O)CC(=O)NCCn1ccc2ncnc(Nc3ccc(Oc4cccc(C(F)(F)F)c4)c(Cl)c3)c21
Method in brief: as §1

[12] = compound: CC(C)C1=C2N=C(C=C(N2N=C1)NCC3=CC=CC=C3)NCCCCCCN
Method in brief: as §1

[13] = compound: CC(C)C[C@@H](C=O)NC(=O)[C@H](CC(C)C)NC(=O)[C@H](CC(C)C)NC(=O)OCc1ccccc1
Method in brief: as §1

pinometostat = compound: CC(C)N(C[C@H]1O[C@@H](n2cnc3c(N)ncnc32)[C@H](O)[C@@H]1O)[C@H]1C[C@@H](CCc2nc3cc(C(C)(C)C)ccc3[nH]2)C1 [pinometostat]
Method in brief: as §1

[14] = compound: CC1=C(C(CC(=O)N1)C2=CC=C(C=C2)C(F)(F)F)C(=O)NC3=C(C=C4C(=C3)C=NN4)F
Method in brief: as §1

[15] = compound: CC1=C(C2=C(C=C1)C(=O)C3=CC=CC=C3N2CCCN)C
Method in brief: as §1

Measured: log2 fold change

ATL3 (UniProt Q6DD88)
inactive: erlotinib 0.024 | [1] 0.077 | [2] 0.074 | [3] -0.019 | [4] -0.013 | [5] 0.013 | [6] 0.012 | [7] 0.012 | [8] -0.006 | [9] 0.035 | IRAK-1-4 Inhibitor I 0.041 | ibrutinib 0.008 | [10] -0.007 | ralimetinib -0.058 | [11] -0.056 | [12] -0.007 | [13] -0.008 | pinometostat 0.003 | [14] 0.001 | [15] 0.064

ARPC5L (UniProt Q9BPX5)
inactive: erlotinib 0.038 | [1] -0.007 | [2] -0.02 | [3] -0.069 | [4] 0 | [5] -0.01 | [6] 0.004 | [7] -0.009 | [8] 0.002 | [9] -0.036 | IRAK-1-4 Inhibitor I 0.02 | ibrutinib -0.006 | [10] 0.014 | ralimetinib -0.08 | [11] -0.008 | [12] 0.171 | [13] -0.006 | pinometostat -0.088 | [14] -0.015 | [15] 0.004

ASRGL1 (UniProt Q7L266)
inactive: erlotinib 0.024 | [1] -0.021 | [2] 0.042 | [3] 0.009 | [4] 0.014 | [5] -0.011 | [6] 0 | [7] 0.004 | [8] -0.003 | [9] 0.018 | IRAK-1-4 Inhibitor I 0.007 | ibrutinib 0.02 | [10] 0.021 | ralimetinib -0.015 | [11] -0.05 | [12] -0.036 | [13] -0.042 | pinometostat 0.02 | [14] -0.011 | [15] 0.084

ATG3 (UniProt Q9NT62)
inactive: erlotinib 0.012 | [1] 0.025 | [2] 0.003 | [3] -0.007 | [4] 0.011 | [5] 0.013 | [6] 0.005 | [7] -0.016 | [8] 0.033 | [9] 0.01 | IRAK-1-4 Inhibitor I 0.057 | ibrutinib -0.006 | [10] -0.009 | ralimetinib -0.035 | [11] -0.017 | [12] 0 | [13] 0.017 | pinometostat -0.028 | [14] -0.015 | [15] -0.078

ATP5PO (UniProt P48047)
inactive: erlotinib -0.045 | [1] -0.05 | [2] 0.055 | [3] -0.012 | [4] -0.025 | [5] -0.021 | [6] -0.001 | [7] 0.007 | [8] 0.04 | [9] 0.043 | IRAK-1-4 Inhibitor I 0.069 | ibrutinib 0.012 | [10] 0.031 | ralimetinib 0.052 | [11] -0.011 | [12] 0.036 | [13] 0.028 | pinometostat -0.021 | [14] 0.004 | [15] 0.009

ASPH (UniProt Q12797)
inactive: erlotinib -0.021 | [1] 0.004 | [2] -0.176 | [3] 0.036 | [4] -0.069 | [5] 0.044 | [6] -0.056 | [7] 0.004 | [8] -0.017 | [9] -0.072 | IRAK-1-4 Inhibitor I -0.105 | ibrutinib -0.017 | [10] 0.048 | ralimetinib 0.057 | [11] 0.023 | [12] -0.02 | [13] 0.044 | pinometostat 0.056 | [14] 0.026 | [15] -0.018

ARSA (UniProt P15289)
inactive: erlotinib 0.094 | [1] 0.011 | [2] -0.129 | [3] 0.103 | [4] 0.016 | [5] -0.015 | [6] -0.082 | [7] -0.044 | [8] -0.057 | [9] 0.123 | IRAK-1-4 Inhibitor I -0.046 | ibrutinib 0.108 | [10] 0.015 | ralimetinib -0.003 | [11] 0.057 | [12] 0.047 | [13] 0.084 | pinometostat -0.058 | [14] 0.016 | [15] 0.06

ATP5F1B (UniProt P06576)
inactive: erlotinib -0.01 | [1] -0.01 | [2] -0.001 | [3] 0.004 | [4] 0.017 | [5] -0.003 | [6] -0.026 | [7] 0.007 | [8] 0.01 | [9] 0.029 | IRAK-1-4 Inhibitor I 0.028 | ibrutinib 0.016 | [10] 0.016 | ralimetinib -0.024 | [11] 0.023 | [12] 0.042 | [13] 0.022 | pinometostat -0.009 | [14] 0.018 | [15] 0.001

ARPC2 (UniProt O15144)
inactive: erlotinib -0.019 | [1] 0.003 | [2] 0.056 | [3] -0.026 | [4] -0.004 | [5] 0.021 | [6] 0.04 | [7] -0.002 | [8] -0.003 | [9] 0.005 | IRAK-1-4 Inhibitor I 0.051 | ibrutinib -0.002 | [10] 0.024 | ralimetinib -0.043 | [11] 0 | [12] 0.074 | [13] -0.018 | pinometostat -0.02 | [14] -0.01 | [15] 0.04

ATP6AP2 (UniProt O75787)
inactive: erlotinib 0.105 | [1] 0.004 | [2] -0.004 | [3] 0.038 | [4] -0.067 | [5] 0.022 | [6] -0.022 | [7] -0.013 | [8] -0.027 | [9] 0.095 | IRAK-1-4 Inhibitor I 0.049 | ibrutinib -0.05 | [10] 0.027 | ralimetinib 0.004 | [11] -0.034 | [12] -0.142 | [13] 0.031 | pinometostat 0.088 | [14] -0.024 | [15] 0.05

ARL2 (UniProt P36404)
inactive: erlotinib 0.01 | [1] 0.008 | [2] 0.039 | [3] -0.01 | [4] 0.072 | [5] 0.008 | [6] 0.03 | [7] 0.037 | [8] -0.027 | [9] -0.012 | IRAK-1-4 Inhibitor I 0.007 | ibrutinib 0.002 | [10] -0.025 | ralimetinib -0.033 | [11] -0.054 | [12] 0.048 | [13] -0.056 | pinometostat -0.013 | [14] -0.022 | [15] 0.04

ATP6V1B2 (UniProt P21281)
inactive: erlotinib -0.004 | [1] 0.007 | [2] -0.004 | [3] 0.018 | [4] -0.025 | [5] 0.007 | [6] -0.102 | [7] 0.022 | [8] -0.031 | [9] 0.011 | IRAK-1-4 Inhibitor I 0.03 | ibrutinib 0.007 | [10] -0.002 | ralimetinib -0.004 | [11] -0.025 | [12] -0.161 | [13] 0.035 | pinometostat 0.008 | [14] 0.032 | [15] -0.012

ATP6V1G1 (UniProt O75348)
inactive: erlotinib 0.027 | [1] -0.041 | [2] -0.017 | [3] 0.02 | [4] 0.015 | [5] -0.008 | [6] -0.12 | [7] 0.016 | [8] -0.024 | [9] -0.01 | IRAK-1-4 Inhibitor I 0.006 | ibrutinib -0.006 | [10] -0.021 | ralimetinib 0 | [11] 0.038 | [12] -0.099 | [13] 0.037 | pinometostat 0.016 | [14] 0.021 | [15] -0.011

ASCC3 (UniProt Q8N3C0)
inactive: erlotinib 0.093 | [1] 0.006 | [2] -0.419 | [3] -0.037 | [4] 0.147 | [5] -0.228 | [6] -0.051 | [7] -0.003 | [8] 0.067 | [9] -0.212 | IRAK-1-4 Inhibitor I -0.092 | ibrutinib 0.057 | [10] 0.008 | ralimetinib 0.089 | [11] 0.01 | [12] 0.007 | [13] 0.216 | pinometostat 0.08 | [14] -0.082 | [15] 0

ASF1B (UniProt Q9NVP2)
inactive: erlotinib -0.124 | [1] 0.127 | [2] -0.055 | [3] 0.009 | [4] 0.236 | [5] 0.009 | [6] -0.022 | [7] -0.089 | [8] -0.053 | [9] 0.036 | IRAK-1-4 Inhibitor I 0.017 | ibrutinib -0.021 | [10] -0.114 | ralimetinib 0.329 | [11] 0.227 | [12] -0.285 | [13] -0.062 | pinometostat 0.108 | [14] 0.128 | [15] 0.165

Looked up one by one from the entries so far, 2 records:
ATP6V1B2 (UniProt P21281)
inactive: erlotinib -0.004 | [1] 0.007 | [2] -0.004 | [3] 0.018 | [4] -0.025 | [5] 0.007 | [6] -0.102 | [7] 0.022 | [8] -0.031 | [9] 0.011 | IRAK-1-4 Inhibitor I 0.03 | ibrutinib 0.007 | [10] -0.002 | ralimetinib -0.004 | [11] -0.025 | [12] -0.161 | [13] 0.035 | pinometostat 0.008 | [14] 0.032 | [15] -0.012

ARL2 (UniProt P36404)
inactive: erlotinib 0.01 | [1] 0.008 | [2] 0.039 | [3] -0.01 | [4] 0.072 | [5] 0.008 | [6] 0.03 | [7] 0.037 | [8] -0.027 | [9] -0.012 | IRAK-1-4 Inhibitor I 0.007 | ibrutinib 0.002 | [10] -0.025 | ralimetinib -0.033 | [11] -0.054 | [12] 0.048 | [13] -0.056 | pinometostat -0.013 | [14] -0.022 | [15] 0.04
